## Results of single-concentration screens

Amino acid sequences for entries named in this document (tags omitted). Residues count along the entry.
UniProt P9WNZ1, whole entry: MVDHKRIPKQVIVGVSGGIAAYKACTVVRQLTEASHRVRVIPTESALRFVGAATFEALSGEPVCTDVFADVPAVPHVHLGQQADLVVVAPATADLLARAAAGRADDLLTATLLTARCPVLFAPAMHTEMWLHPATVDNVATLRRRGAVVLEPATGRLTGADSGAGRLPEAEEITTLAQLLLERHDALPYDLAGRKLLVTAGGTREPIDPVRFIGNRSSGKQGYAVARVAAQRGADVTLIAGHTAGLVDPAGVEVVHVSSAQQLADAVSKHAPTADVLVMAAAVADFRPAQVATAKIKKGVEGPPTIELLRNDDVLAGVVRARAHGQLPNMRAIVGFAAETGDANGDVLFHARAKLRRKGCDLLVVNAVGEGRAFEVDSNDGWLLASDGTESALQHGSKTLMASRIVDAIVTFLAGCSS
UniProt P9WFT3, whole entry: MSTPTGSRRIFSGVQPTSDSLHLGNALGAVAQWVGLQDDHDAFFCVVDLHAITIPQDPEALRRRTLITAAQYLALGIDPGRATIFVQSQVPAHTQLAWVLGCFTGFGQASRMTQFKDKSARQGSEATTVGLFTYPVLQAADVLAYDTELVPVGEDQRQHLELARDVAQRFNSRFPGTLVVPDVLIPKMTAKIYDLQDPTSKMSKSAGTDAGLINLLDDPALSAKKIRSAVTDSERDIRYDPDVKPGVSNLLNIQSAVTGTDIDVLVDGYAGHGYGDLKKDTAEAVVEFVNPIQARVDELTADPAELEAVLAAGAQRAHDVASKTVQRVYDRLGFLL
UniProt A4I591, 1-473: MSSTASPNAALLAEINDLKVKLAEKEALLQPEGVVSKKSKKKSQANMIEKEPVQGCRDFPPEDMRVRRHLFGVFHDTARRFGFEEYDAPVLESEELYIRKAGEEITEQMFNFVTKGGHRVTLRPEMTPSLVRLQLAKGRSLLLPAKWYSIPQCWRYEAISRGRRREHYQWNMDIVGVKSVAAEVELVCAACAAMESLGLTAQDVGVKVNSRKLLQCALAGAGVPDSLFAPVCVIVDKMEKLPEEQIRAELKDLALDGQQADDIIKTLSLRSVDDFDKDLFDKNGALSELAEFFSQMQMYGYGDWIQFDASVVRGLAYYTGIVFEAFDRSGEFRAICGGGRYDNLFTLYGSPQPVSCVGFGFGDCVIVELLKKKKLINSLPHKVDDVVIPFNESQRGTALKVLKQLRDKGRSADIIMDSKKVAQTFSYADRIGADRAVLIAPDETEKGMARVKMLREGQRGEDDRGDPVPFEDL

Data taken from ChEMBL document CHEMBL3988442, “University of Dundee, Small-Polar-MMV Screening Library” (2021).

CoaBC: 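Enzyme assay of CoaBC with a phosphate dye (Biomol Green) read at 650 nm. Target: Coenzyme A biosynthesis protein CoaBC, Mycobacterium tuberculosis (UniProt P9WNZ1). Compounds at 30 µM. Higher reads as stronger inhibition, judged from the few compounds that gave an IC50. Most strong results did not repeat in a second test. Of about 67,000 compounds tested this way, about 40 (0.06%) reached 50% or more in at least one test.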
Toxoplasma: 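Assay of Toxoplasma gondii numbers, read through their beta-galactosidase reporter with a colour substrate. Compounds at 10 µM. Higher reads as fewer parasites (inferred from which compounds were picked for retests). Size under these conditions: about 67,000 compounds, about 260 of them at 50% or above in at least one test.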
Leishmania in macrophages: 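Cell assay of Leishmania donovani living inside macrophages; the read-out is not stated. Compounds at 30 µM. Direction is inferred from retests: higher values go with stronger inhibition. Size under these conditions: about 69,000 compounds, about 1,000 of them at 50% or above in at least one test.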
MtTrpRS: 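Enzyme assay of tryptophanyl-tRNA synthetase; the read-out is not stated. Target: Tryptophan-tRNA ligase, Mycobacterium tuberculosis (UniProt P9WFT3). Concentration: 10 µM. Higher most likely means stronger inhibition; the record gives no direction and few retests gave an IC50. Of about 65,000 compounds tested this way, about 64 (0.098%) reached 50% or more in at least one test.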
LiHisRS: 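Enzyme assay of histidyl-tRNA synthetase; the read-out is not stated. Target: Histidine-tRNA ligase, Leishmania infantum (UniProt A4I591). Concentration: 30 µM. The record gives no direction; compounds that gave an IC50 in retests scored well above the rest, so higher reads as stronger inhibition. The assay is labelled LdHisRS but filed under L. infantum. Of about 69,000 compounds tested this way, about 410 (0.6%) reached 50% or more in at least one test.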

The filed quantity is “Percent Effect” (%).
The record does not define 0% and 100%; most values in the screen are far below 50% and negative numbers occur (in some assays of this library far below -100).
This is an unselected part of the compounds tested.
Two or more numbers in one place are separate tests of the same structure; such repeats can differ widely.
A dash means the value is not listed here; it may have been measured.

Compound | CoaBC | Toxoplasma | Leishmania in macrophages | MtTrpRS | LiHisRS
Cc1noc(C)c1CN1CC[C@@H]2O[C@H](COCC3CC3)CC[C@@H]21 | -0.9677 | - | - | 0.09295 | 30.56
CN1CCCN(c2nccc(-c3c[nH]nc3-c3ccncc3)n2)CC1 | 3.494 | -33.32 | 16.14 & 1.366 | - | 34.29
Cc1cc(N2CCN(C(=O)[C@@H]3C[C@@H]4C=C[C@H]3C4)CC2)nc2ccccc12 | 4.612 | - | - | 1.903 | 27.14
O=C(c1ccoc1)N1CCC(NCc2cccnc2)CC1 | 6.483 | 4.332 | 6.605 | 0.3112 | 14.91
c1cc(CN2C[C@@H]3OCCN(CCN4CCCC4)[C@@H]3C2)ccn1 | -9.919 | - | - | 1.283 | 14.29
CCc1ncnc2c1CCN(C(=O)Cc1ccccn1)CC2 | 7.672 | 3.108 | 5.276 | -1.407 | 5.825
Cn1cc(N2CCC3(CCN(S(=O)(=O)C4CC4)C3)C2=O)cn1 (stereo not shown) | -5.457 | 2.564 | 6.916 | -3.463 | 9.434
O=C([C@H]1COC[C@H]2CN(C3CCOCC3)C[C@H]21)N1CCC(F)CC1 | 1.724 | - | - | -5.315 | 18
Cc1nc(CC2CCN(C(=O)C(c3ccccc3C)N(C)C)CC2)no1 (stereo not shown) | -2.751 | 8.705 | 17.09 | 4.759 | 9.836
O=C(c1ncn2c1CNS(=O)(=O)c1ccccc1-2)N1CCOCC1 | 15.83 | -13.92 | 5.281 | 19.11 | 17.95
CCn1cnnc1C1CCN(C(=O)COc2ccccc2)CC1 | 8.462 | 2.658 | 2.8 | -7.428 | 16
Cc1nc(Cc2ccc(F)cc2)cc(C2COCCN2)n1.Cl (stereo not shown) | - | 20.79 | 36.55 | - | -
[H][C@@]12CCCO[C@]1([H])[C@H](NC(=O)C1CC1)CN2Cc1cccc(C#N)c1 | - | 0.1028 | 12.5 | - | -
CN(C)S(=O)(=O)c1ccc(CN2CCCC2c2ccsc2)o1 (stereo not shown) | 1.405 | 1.907 | 22.43 | -5.503 | 25.89
CCOCC1CN(Cc2ccco2)Cc2nccn2C1 (stereo not shown) | 5.008 | - | - | 2.532 | 13.83
CNC(=O)CC1COCCN1C(=O)C1(c2ccc(Cl)cc2)CCC1 (stereo not shown) | -4.141 | -6.35 | 15.33 | -7.019 | 6.78
O=C1CN(C(=O)c2cc3c(F)cc(Br)cc3[nH]2)CCN1 | -5.251 | 32.31 | 25.86 | 1.782 | 8.333
Cc1cc(C)n(CC2CCCN2CC(=O)Nc2nnc(C)s2)n1 (stereo not shown) | -0.1248 | -9.638 | 6.37 | -0.4691 | 8.264
COCC(=O)Nc1nnc2n(Cc3cccc(OC)c3)[nH]c(C)c1-2 | 2.344 | 20.68 | 9.533 | 3.803 | 21.35
CCn1nc(C)cc1S(=O)(=O)N1CCC2(CCCN(C(C)C)C2=O)C1 (stereo not shown) | 1.353 | - | 21.54 | -3.903 | 3.226
CC(C)N1CCCC2(CCN(C(=O)COCC(F)(F)C(F)F)C2)C1=O (stereo not shown) | - | -35.05 | 2.838 | -0.4128 | 7.5
CO[C@@H]1CC[C@H]2[C@H]1OCCN2S(=O)(=O)C1CC1 | -2.343 | - | - | -4.699 | 6.944
Cc1occc1C(=O)N1CCC2(CCC(=O)N(CC(N)=O)C2)CC1 | -7.173 | 0.5234 | -14.56 | -1.517 | 8.654
CCn1ccnc1CN1CCN(c2ncnc3ccccc23)CC1 | 4.545 | 15.01 | 31.43 | -3.271 | 24.66
CNc1snc(C)c1C(=O)N1CCCC(n2cccn2)C1 (stereo not shown) | 4.961 | 1.114 | 20.79 | -6.734 | 10.34
CNc1[nH]nc(N)c1C(=O)Nc1ccc(OC)cc1 | -0.8861 | -29.93 | 48.28 | -1.763 | 27.5
Cn1nnc2c1CCN(Cc1ccccn1)C2COCc1ccccc1 (stereo not shown) | 0.8653 | - | - | -0.9856 | 15
CC(C)c1noc(C(C)N2CCN(Cc3cccc(C#N)c3)CC2)n1 (stereo not shown) | 8.211 | -2.132 | 3.455 | -1.484 | 7.547
CC(C)(C)c1coc([C@@H]2COCCN2Cc2ccccc2)n1 | 17.09 | 19.16 | -6.373 | -3.127 | 27.03
Cc1ncc(C(=O)NC2CCN(CCOc3ccc(Br)cc3)CC2)s1 | 0.8065 | -3.889 | 5.503 | -5.509 | 7.895
CC(C)CCNC(=O)CCc1ccnc2ccccc12 | 3.509 | 3.837 | 11.07 | -1.068 | 13.33
Cc1cccc(C(=O)NCc2ccc(S(N)(=O)=O)cc2)n1 | 0.7229 | 1.694 | 34.51 | -0.7194 | 21.92
CN(C)C(CNC(=O)c1ncoc1-c1ccccc1)c1ccsc1 (stereo not shown) | -1.814 | -4.568 | 3.308 | -5.51 | 9.677
CCNC(=O)N1C[C@@H]2OCC(=O)N(CC3CC3)[C@@H]2C1 | 19.45 | - | - | -1.907 | 16.22
CN(C)CCN1CCC2(CCCN(C(=O)C3CCC3)C2)CC1.O=C(O)C(F)(F)F.O=C(O)C(F)(F)F | - | 10.64 | 37.46 | - | -
COc1nc2c(cc1C(=O)NCCc1nc3c(s1)CCC3)CCC2 | -13.64 | -4.911 | -5.744 | 3.192 | 0
O=C(O)c1ccnc(-c2ccnc(NCCc3ccc(F)cc3)n2)c1 | 2.263 | -5.13 | 26.86 | -3.722 | 5.376
O=C(C[C@@H]1COC[C@H]2CN(Cc3ccc(F)cc3)C[C@@H]12)N1CCCC1 | 4.762 | - | - | 1.936 | 17.95
CCc1nc(C2CCCN2C(=O)c2cc(C3CC3)[nH]n2)no1 (stereo not shown) | 0.1304 | -6.092 | 0.6845 | 2.956 | 12.16
O=C(c1nc(Cc2c[nH]c3ccccc23)no1)N1CCCCC1 | -2.552 | - | -12.9 | 11.9 | -4.348
CC(C)NC(=O)N1CCc2ncnc(-c3ccncc3)c2CC1 | 2.927 | - | - | - | 11.32
Cc1nc(CN2CCO[C@H]3CN(C(=O)Cc4cccs4)C[C@H]32)cs1 | -2.832 | - | - | -2.581 | 19.3
CN(C)CCN(C)C[C@@H]1CN(C(=O)NC2CCCC2)C[C@@H]1CO | -1.316 | 15.62 | 32.6 | 0.8542 | -29.51
CC(C)C(=O)N1CCN(Cc2ccccn2)CC2(CC(=O)N(C)C2)C1.O=C(O)C(F)(F)F.O=C(O)C(F)(F)F (stereo not shown) | - | -4.764 | 9.452 | - | -
COc1ccc(CC(=O)N2CCCC(n3nc(C)cc3C)C2)cc1F (stereo not shown) | 3.937 | 2.007 | 18.37 | -1.49 | 5.085
Cc1cc(CN2CCN(C(C)c3nc(C(C)C)no3)CC2)no1 (stereo not shown) | -4.519 | -1.979 | -6.031 | 0.3112 | -51.75
Cc1cnc(N2CCCOC(CN3CCCCC3)C2)nc1 (stereo not shown) | - | 1.256 | 20.32 | -0.8256 | 5.833
CCC1CN(C(=O)c2ccccc2C(C)=O)CCN1C(C)C (stereo not shown) | 3.1 | -2.592 | -21.57 | 1.526 | 20.55
CC(C)(O)CN1CCC(=O)N(Cc2ccco2)Cc2cc(F)ccc21 | 2.577 | -0.5573 | 24.78 | - | 12.37
CC(C)C(=O)N1CCCC2(C1)CN(c1nncs1)CCO2 (stereo not shown) | 1.98 | - | - | - | 6.306